Patent publication US20070293666A1, “Optical Filter and Its Applications, and Porphyrin Compound Used in Optical Filter” (Mitsui Chemicals, Inc., priority 2004, published 2007)
Some entries share one result that the patent states for a list of compounds.

Assay: Environmental accelerated tests (high temperature, high-temperature/high-humidity, artificial sunlight irradiation), summary
Assay type: physicochemical
Details: all three tests, even after 1000 hours

For CCCCCOc1ccc(C2=c3nc(c4c5cccc6cccc(c3=4)c65)C(c3ccc(OCCCCC)cc3)=c3c4c(c5[n]3[Cu][n]3c2c2c(c3C(c3ccc(OCCCCC)cc3)=c3nc(c6c7cccc8cccc(c3=6)c87)C=5c3ccc(OCCCCC)cc3)-c3cccc5cccc-2c35)-c2cccc3cccc-4c23)cc1 [1-2], the “absorption retention rate in all environmental accelerated tests” value was “not less than 80%”.
